Laboratory results reported in PMC3713054.
No constants are given. Whether binding was seen depends on the method and setting. In cells and extracts the contact can be indirect. Some binding calls cover weakened binding; strength is not graded here.

Chains of the proteins cited; added tags and fusions are not shown. Residues count along the entry.
UniProt Q01097, residues 27-1482: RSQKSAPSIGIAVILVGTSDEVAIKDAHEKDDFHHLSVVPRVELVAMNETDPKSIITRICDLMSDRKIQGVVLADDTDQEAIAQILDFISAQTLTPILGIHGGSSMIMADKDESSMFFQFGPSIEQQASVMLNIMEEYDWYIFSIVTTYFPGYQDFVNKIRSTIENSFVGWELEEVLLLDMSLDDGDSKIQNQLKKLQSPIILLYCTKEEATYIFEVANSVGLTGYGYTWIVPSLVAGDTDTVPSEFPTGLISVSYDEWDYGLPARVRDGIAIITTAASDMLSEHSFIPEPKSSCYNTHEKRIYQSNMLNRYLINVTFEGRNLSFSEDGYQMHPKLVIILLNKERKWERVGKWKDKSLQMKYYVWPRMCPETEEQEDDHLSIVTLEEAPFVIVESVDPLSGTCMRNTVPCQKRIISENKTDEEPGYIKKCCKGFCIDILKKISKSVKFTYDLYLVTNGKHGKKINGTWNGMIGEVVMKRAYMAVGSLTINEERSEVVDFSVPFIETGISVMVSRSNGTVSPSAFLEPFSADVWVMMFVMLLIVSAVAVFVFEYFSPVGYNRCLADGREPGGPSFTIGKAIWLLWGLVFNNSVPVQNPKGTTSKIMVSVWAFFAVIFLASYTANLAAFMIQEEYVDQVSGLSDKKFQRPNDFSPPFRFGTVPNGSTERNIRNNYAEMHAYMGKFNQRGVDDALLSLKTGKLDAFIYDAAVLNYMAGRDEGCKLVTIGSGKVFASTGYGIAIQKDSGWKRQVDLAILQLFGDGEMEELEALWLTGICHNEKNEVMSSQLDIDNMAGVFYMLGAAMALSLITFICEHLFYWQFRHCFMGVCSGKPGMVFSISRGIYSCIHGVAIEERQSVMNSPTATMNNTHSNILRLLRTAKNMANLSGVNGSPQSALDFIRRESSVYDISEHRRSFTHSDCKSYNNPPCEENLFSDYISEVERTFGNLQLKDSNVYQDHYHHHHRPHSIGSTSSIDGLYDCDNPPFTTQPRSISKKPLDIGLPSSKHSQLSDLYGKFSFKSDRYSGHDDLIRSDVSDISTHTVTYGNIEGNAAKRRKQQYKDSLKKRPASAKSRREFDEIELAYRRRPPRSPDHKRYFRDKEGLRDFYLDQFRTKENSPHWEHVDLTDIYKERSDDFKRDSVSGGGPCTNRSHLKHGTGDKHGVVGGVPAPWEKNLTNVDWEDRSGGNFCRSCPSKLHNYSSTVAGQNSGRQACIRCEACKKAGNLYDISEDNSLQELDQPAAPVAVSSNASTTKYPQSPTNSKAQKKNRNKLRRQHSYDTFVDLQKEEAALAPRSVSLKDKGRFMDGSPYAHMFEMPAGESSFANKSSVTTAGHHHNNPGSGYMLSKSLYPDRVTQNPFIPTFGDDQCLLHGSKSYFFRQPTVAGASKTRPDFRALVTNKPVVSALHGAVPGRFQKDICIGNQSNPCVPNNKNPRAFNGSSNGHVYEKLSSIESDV

Molecular target: T1, mitochondrial uncoupling protein-2 (mouse (endogenous in murine neocortical neurons)) (UniProt P70406)
T1 sequence: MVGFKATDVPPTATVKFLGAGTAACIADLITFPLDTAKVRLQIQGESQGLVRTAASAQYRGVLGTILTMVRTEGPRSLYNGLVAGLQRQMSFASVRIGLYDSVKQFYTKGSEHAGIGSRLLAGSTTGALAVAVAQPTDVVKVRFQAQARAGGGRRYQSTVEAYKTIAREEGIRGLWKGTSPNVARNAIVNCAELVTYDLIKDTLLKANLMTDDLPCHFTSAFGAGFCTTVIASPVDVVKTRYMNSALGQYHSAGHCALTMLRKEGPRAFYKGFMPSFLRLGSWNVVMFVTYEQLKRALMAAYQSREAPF
Assay: co-IP; lysate of murine neocortical neurons cultured for 8 days (lysis buffer with 1% Nonidet P-40); incubation with the anti-UCP2 antibody for 16 h at 4°C; washed 3 times with 20 mM Tris-HCl (pH 7.5), 137 mM NaCl; immunoblot for GluN2A and GluN2B; cells exposed to ethanol at 50 mM to 1 M for 20 min before lysis

## N-methyl-D-aspartate receptor GluN2A subunit (from UniProt P35436 23-1464)
  binding: binds

## N-methyl-D-aspartate receptor GluN2B subunit (from UniProt Q01097 27-1482)
  binding: binds
